Reference: PubChem BioAssay (Tox21)
Where “and” joins values, the source holds several entries; their conditions need not be identical. Identical values can stand only once. Inconclusive results, whose numbers are uncertain, are shown with a selection of clear calls. Where the call is inconclusive, the potency comes from a doubtful curve fit. Calls of active or inactive are those of the source. The call rests on the fitted dose curve.

Chains of the proteins cited; added tags and fusions are not shown.
UniProt P28223, whole entry, looked up: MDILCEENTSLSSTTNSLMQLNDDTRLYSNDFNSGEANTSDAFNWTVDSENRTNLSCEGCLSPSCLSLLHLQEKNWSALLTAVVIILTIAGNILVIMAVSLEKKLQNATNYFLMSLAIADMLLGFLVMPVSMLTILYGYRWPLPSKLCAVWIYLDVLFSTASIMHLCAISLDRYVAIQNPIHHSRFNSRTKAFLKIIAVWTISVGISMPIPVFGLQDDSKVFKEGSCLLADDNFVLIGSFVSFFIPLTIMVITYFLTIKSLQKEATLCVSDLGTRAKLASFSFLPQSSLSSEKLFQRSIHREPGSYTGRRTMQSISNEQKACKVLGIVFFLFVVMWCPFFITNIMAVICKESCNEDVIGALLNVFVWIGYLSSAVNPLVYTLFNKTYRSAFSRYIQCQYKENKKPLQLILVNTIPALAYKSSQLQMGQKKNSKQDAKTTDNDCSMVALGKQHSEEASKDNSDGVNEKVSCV

Each compound was assayed against 5-hydroxytryptamine receptor 2A (Homo sapiens) (UniProt P28223) (assay: 5-hydroxytryptamine receptor 2A (HTR2A) small molecule antagonists, cell-based qHTS assay (AID 1963586; further: nearly all actives have a fitted effect of over 45% in size)). Conditions: HTR2A-CHO cells, DOI-induced calcium flux, fluorescence; series mostly up to 61.5 µM; activity, negative = inhibition: at the top concentration.
From the text: National Center for Advancing Translational Sciences [NCATS]
Division of Preclinical Innovation [DPI]
U.S. Environmental Protection Agency [EPA]
National Institutes of Environmental Health Sciences [NIEHS]
National Toxicology Program [NTP]
U.S. Food and Drug Administration [FDA]
The HTR2A receptor is a subtype of the 5-HT2 receptor that belongs to the serotonin receptor family and is a G protein-coupled receptor (GPCR). The HTR2A-CHO cell line stably expressing human 5-hydroxytryptamine receptor 2A (HTR2A) can be used for screening antagonists of interactions between 5-HT2 and its ligands. The HTR2A-CHO calcium flux assay is a homogeneous fluorescence-based assay for detecting the intracellular calcium level using FDSS kinetic plate reader system.
Tox21 Assay Protocol Summary:
HTR2A-CHO cells were dispensed at 2000 cells/3uL/well in 1536-well black-clear bottom plates using a Multidrop Dispenser. After the assay plates were incubated at a 37 C/5% CO2 incubator for 18 h, 3 uL of Dye Loading Buffer was transferred to the assay plate by a Flying Reagent Dispenser. The assay plates were incubated at 37 C for 1h. For antagonist mode, 23 nL of compounds dissolved in DMSO, positive controls or DMSO only was transferred to the assay plate by a pin tool. After 5 min incubation at room temperature, 1.5 uL of 4-Iodo-2,5-dimethoxy-alpha-methylbenzeneethanamine hydrochloride (DOI) at 4nM was added to each well. The fluorescence intensity in the plates was measured using FDSS 7000EX kinetic plate reader for 3 min at 1 sec intervals.
On the % scale 0 is the no-effect control and ±100 the full control effect; potency means the concentration at half of the fitted maximal effect.

Structure (SMILES) | activity, negative = inhibition | Potency
CCN1CCCC1CN (stereo not given) | inactive: 13.8% [at 28.5 µM] | 
CCCCCCCCCCCCCO |  | inconclusive: 4.36 µM [inhibitor, single point]
Brc1ccccc1-c1ccccc1 |  | active: 17.8 µM
C=CC(=O)[O-].C=CC(=O)[O-].[Zn+2] |  | inconclusive: 0.116 µM [inhibitor, full curve, poor fit]
COc1ccc(-c2nc3ccc(C4=NNC(=O)CC4C)cc3[nH]2)cc1 (stereo not given) |  | active: 0.23 µM
CCCCCCCCCC |  | inconclusive: 0.006 µM [inhibitor, full curve, poor fit]
c1ccc2c(c1)[nH]c1ccccc12 |  | inactive
O=C(O)CCS |  | active: 3.41 µM
CC(=O)N[C@@H](CCC(=O)O)C(=O)O | inactive: 3.8% [at 28.5 µM] | 
CCCCCCCC[N+](CCCCCCCC)(CCCCCCCC)CCCCCCCC |  | inconclusive: 0.0133 µM [inhibitor, full curve, poor fit]
CC(Cc1cccc(C(F)(F)F)c1)NCCOC(=O)c1ccccc1 (stereo not given) |  | active: 20.5 µM
CC(=O)NC1(c2cccc(F)c2)CCN(CC[C@@]2(c3ccc(Cl)c(Cl)c3)CN(c3ccccc3)C(=O)CO2)CC1 |  | inconclusive: 0.75 µM [inhibitor, full curve, poor fit]
CC(Cc1ccc(O)c(O)c1)C(C)Cc1ccc(O)c(O)c1 (stereo not given) |  | inconclusive: 42.1 µM [inhibitor, single point]
CCCCCC(=O)O |  | inactive
CCCCCCCCCCCCCCOS(=O)(=O)O |  | inconclusive: 9.42 µM [inhibitor, partial curve, poor fit]
[Na+] |  | inactive
CC(C)CCOC(=O)/C=C/c1ccccc1 | inactive: 40.1% | 
CN(C)CCN(C)CCN(C)C |  | inconclusive: 1.44 µM [inhibitor, full curve, poor fit]
CCOC(=O)c1ccccc1C(=C1C=C(Br)C(=O)C(Br)=C1)c1cc(Br)c(O)c(Br)c1 |  | inconclusive: 31.5 µM [inhibitor, single point]
Nc1nc(-c2ccccc2)cs1 |  | inconclusive: 0.333 µM [inhibitor, full curve, poor fit]

Structure (SMILES) | activity, negative = inhibition | Potency
CCCCCCCCCCCCCCCC[N+](C)(C)CC |  | active: 13.3 µM and active: 11.6 µM
CC1CC(OC(=O)C(O)c2ccccc2)CC(C)(C)N1C (stereo not given) |  | inconclusive: 13 µM [inhibitor, partial curve, poor fit]
CC/C(C)=N/O |  | inconclusive: 0.0106 µM [inhibitor, full curve, poor fit]
Cn1cccc1 | inactive: -7.6% | 
O=c1cc[nH]c(=O)[nH]1 |  | inactive
CCCCC(CC)CN=C(N)NC(N)=NCCCCCCN=C(N)NC(N)=NCC(CC)CCCC (stereo not given) |  | active: 18.3 µM
O=C(Nc1ccc(C(=O)O)c(O)c1)c1ccccc1 |  | inconclusive: 0.818 µM [inhibitor, single point]
CCCCN1C[C@H](O)[C@@H](O)[C@H](O)[C@H]1CO | inactive: -23.4% [at 28.5 µM] | 
CCOC(=O)CC(C(C)=O)C(C)=O | inactive: 5.68% | 
CC(C)C[C@@H](N)C(=O)O |  | inconclusive: 0.503 µM [inhibitor, single point]
Cc1ccc(C(C)(C)C)c(O)c1 |  | inconclusive: 45.7 µM [inhibitor, single point] and inactive
CC[C@H](C)[C@@H](C(=O)O)n1sc2ccccc2c1=O | inactive: 55.2% | 
COc1ccc(-c2cc(=O)c3c(O)cc(O[C@@H]4O[C@H](CO[C@@H]5O[C@@H](C)[C@H](O)[C@@H](O)[C@H]5O)[C@@H](O)[C@H](O)[C@H]4O)cc3o2)cc1O |  | inconclusive: 2.05 µM [inhibitor, partial curve, poor fit]
CCN1CCCC(OC(=O)C(c2ccccc2)c2ccccc2)C1 (stereo not given) |  | active: 0.163 µM
CN1CCN(CCCN2c3ccccc3Sc3ccc(S(=O)(=O)N(C)C)cc32)CC1 |  | inconclusive: 11.6 µM [inhibitor, partial curve, poor fit]
CN1CCC(=C2c3ccccc3CCc3sccc32)CC1 |  | active: 0.0116 µM
CC(C)NCCCC1(C(N)=O)c2ccccc2-c2ccccc21 |  | inconclusive: 0.0006 µM [inhibitor]
COc1ccc(Br)c(C)c1 | inactive: 55.4% | 
COc1cc(N)c(Cl)cc1C(=O)NC1CCN(Cc2ccccc2)CC1 |  | active: 1.83 µM
CCN(CC)CCOCCOC(=O)C1(c2ccccc2)CCCC1 |  | inconclusive: 14.5 µM [inhibitor, partial curve, poor fit]
